Hit rate of the full screen: of about 360,000 compounds, about 780 (0.22%) were called active. Inconclusive results, whose numbers are uncertain, are shown with a selection of clear calls. No stated cut-off is given here; in the data, active means inhibition above about 35% (passing the limit was not always enough); inconclusive means no clear call, values can overlap the other calls.
What follows are compounds tested on Botulinum neurotoxin type F light chain protease (Clostridium botulinum) (assay: BoNT/F light chain protease inhibitors, primary screen, biochemical, flow cytometry, MLPCN library (AID 588497; further: plate controls were buffer without enzyme for full effect and enzyme alone for no effect)). Conditions: Multiplex microsphere protease cleavage assay, at 10 µM, hits give high values.
With `Clc1ccccc1OCc1nn[nH]n1` the inhibition was inconclusive: 56.8%.
For `CCN(c1ccc(C(O)(C(=O)OC)C(F)(F)F)cc1)S(=O)(=O)c1ccccc1` (stereo not drawn), the inhibition was inconclusive: -29.7%.
For `COC(=O)CCCC(=O)N(C)CC1CCCN(CCc2ccccc2C)C1` (stereo not drawn), the inhibition was inconclusive: 24.5%.
`CC(C)C(C(=O)NCC1CCCO1)N(C(=O)CNS(=O)(=O)c1ccc(F)cc1)C1CCCCC1` (stereo not drawn) was tested, and the inhibition was inactive: -4.2%.
In the case of `Cc1cccc(NC(=O)CCN2CCN(C)CC2)c1`, the inhibition is reported as inconclusive: 6%.
In the case of `Cn1c(=O)c2cc3c(nc2n(C)c1=O)CC(c1ccccc1)CC3=O` (stereo not drawn), the inhibition is reported as inconclusive: -15%.
With `O=C(CCN1C(=O)c2ccccc2S1(=O)=O)NCc1ccc(F)cc1` the inhibition was inconclusive: -9.7%.
In the case of `CC(O)CCC(=O)NNC1CC(=O)N(c2ccccc2)C1=O` (stereo not drawn), the inhibition is reported as inconclusive: -69.3%.
With `CCOCCCN(C(=O)c1snc(C(N)=O)c1N)C(C(=O)NCCC(C)C)c1ccc(F)cc1` (stereo not drawn) the inhibition was inconclusive: 3.7%.
With `CCOC(=O)CSc1nc(N)c2c3c(sc2n1)CCCC3` the inhibition was inconclusive: -18.3%.
`CN(C)S(=O)(=O)c1ccc(S(=O)(=O)NCc2ccc3c(c2)OCO3)cc1` was tested, and the inhibition was active: 38%.
For `COc1cc(/C=N/Nc2nc3ccccc3o2)cc(OC)c1O`, the inhibition was inconclusive: -4.5%.
With `C=CCn1c(O)c(/C=N/NC(=O)c2ccncc2)c(=O)[nH]c1=O` the inhibition was inconclusive: -15.6%.
In the case of `CC1CCN(C(=O)c2cc3c(ccc4ccccc43)o2)CC1`, the inhibition is reported as inconclusive: -6.4%.
`COc1ccc(-c2ccc(SCC(=O)N3CCOCC3)nn2)cc1` was tested, and the inhibition was inactive: 6.1%.
For `COc1ccccc1-n1cc(-c2ccc([N+](=O)[O-])cc2)[nH]c1=S`, the inhibition was inconclusive: 37.7%.
`Cc1nc(C)c(-c2ccnc(/N=C/NO)n2)s1` was tested, and the inhibition was inconclusive: 179%.
`O=C(CC(NS(=O)(=O)c1ccc(Cl)cc1)c1ccco1)NCc1ccco1` (stereo not drawn) was tested, and the inhibition was inactive: -20.4%.
`COc1ccc(C(=O)NC2CCN(CC(=O)Nc3c(C)cccc3C)CC2)cc1OC` was tested, and the inhibition was inconclusive: -21.5%.
In the case of `CCSc1nc2c(c(=O)[nH]1)C(c1ccc(C)cc1)C1=C(CCCC1=O)N2` (stereo not drawn), the inhibition is reported as inactive: 2.3%.
With `Cc1cn2c(=O)c(C(=O)N3CCN(c4ccccc4)CC3)cnc2s1` the inhibition was inconclusive: 1.3%.
`CCn1nnc(-c2ccccc2NS(=O)(=O)c2ccc(S(=O)(=O)N(C)C3CCCCC3)cc2)n1` was tested, and the inhibition was inactive: -6%.
In the case of `CCCNC(=O)c1ccc(COc2ccc(Cl)cc2)o1`, the inhibition is reported as inconclusive: -38.6%.
With `CC(C)Cn1c(=O)c(C(=O)Nc2ccccc2S(N)(=O)=O)c(O)c2ccccc21` the inhibition was inactive: -4.1%.
For `CS(=O)(=O)Nc1ccccc1C(=O)O`, the inhibition was inactive: -14.6%.
`CCOC(=O)N(CC)c1ccc(C(O)(C(=O)OCC)C(F)(F)F)cc1` (stereo not drawn) was tested, and the inhibition was inactive: -23.6%.
For `N#Cc1c(NCCCO)nc(-c2ccccc2)c2c1CCCC2`, the inhibition was inactive: 5.6%.
In the case of `Brc1ccc2c(c1)[C@H]1OCC[C@H]1[C@@H](c1cccs1)N2`, the inhibition is reported as inconclusive: -136%.
With `O=c1c2ccccc2nnn1CSc1nnc(Nc2ccccc2)s1` the inhibition was inconclusive: -12.1%.
For `O=C(Cc1cccs1)Nc1ccc(NC(=O)c2ccco2)cc1`, the inhibition was inconclusive: -13.7%.
In the case of `Cc1ccc(C(=O)N/C(=C\c2cccs2)C(=O)NCC2CCCO2)cc1C` (stereo not drawn), the inhibition is reported as inactive: -1.3%.
`O=c1[nH]nc(SCc2nnc(-c3cccc(Cl)c3)o2)n1C1CCCCC1` was tested, and the inhibition was inconclusive: -2.8%.
For `CCc1nc(SCC(=O)c2ccc(C)c(C)c2)n[nH]1`, the inhibition was inactive: 0.2%.
With `Cc1ccc(C(C)C)cc1OCCn1cncn1` the inhibition was inconclusive: 1.6%.
`Cc1cc2cc(CNC(=O)Nc3ccccc3)ccc2[nH]1` was tested, and the inhibition was inactive: -117%.
For `Cc1ccc(S(=O)(=O)N2CCOCC2)cc1C(=O)Nc1cccc(C(=O)NC2CC2)c1`, the inhibition was inconclusive: -0.4%.
In the case of `CCOc1ccc2[nH]c3c(NCC(C)C)ncnc3c2c1`, the inhibition is reported as inconclusive: 5.3%.
With `COc1ccccc1C(=O)N=C1SC2CS(=O)(=O)CC2N1c1ccccc1` (stereo not drawn) the inhibition was inactive: 4.4%.
`O=C(OCc1nc2scc(-c3ccccc3)c2c(=O)[nH]1)c1ccco1` was tested, and the inhibition was inconclusive: 0.4%.
With `O=C1SC(SCc2ccccc2)=N/C1=C\c1ccc(C(=O)O)cc1` the inhibition was inactive: -4%.
With `Cn1c(=O)c([N+](=O)[O-])c(N2CCN(Cc3ccc4c(c3)OCO4)CC2)c2ccccc21` the inhibition was inconclusive: 17.1%.
`CN(C(=O)c1ccco1)c1nc(-c2ccc(F)cc2)cs1` was tested, and the inhibition was inconclusive: -7.9%.
With `O=C(CN1C(=O)NC2(CCCC2)C1=O)NNC(=O)c1ccc(Br)cc1` the inhibition was inconclusive: -3.6%.
With `CC(=O)c1sc(NC(=O)CCc2ccccc2)nc1C` the inhibition was inactive: -12.5%.
With `COc1ccc2[nH]c(=S)cc(C)c2c1` the inhibition was inconclusive: -23.5%.
With `COc1ccc(CC(=O)NCc2ccc(Cl)cc2)cc1S(=O)(=O)N1CCOCC1` the inhibition was inconclusive: 10.9%.
In the case of `Cc1ccccc1OCCSc1nc2ccccc2n1CCC(=O)O`, the inhibition is reported as inconclusive: -20.4%.
For `S=C1SCN(CC2CC2)CN1CC1CC1`, the inhibition was inconclusive: 56.7%.
For `CC(C)=CCC[C@H](C)C[C@@H]1CC2=C(C(=O)OC(C)(C)O2)[C@H](c2ccc(Cl)cc2)O1`, the inhibition was inactive: -1.8%.
For `COc1ccc(-c2ocnc2C(=O)NCc2nn(-c3ccccc3)nc2C)cc1`, the inhibition was inconclusive: 8%.
In the case of `C[n+]1ccccc1/C=C/c1c(F)cccc1F`, the inhibition is reported as inconclusive: 1.5%.
`O=C1CC2CS(=O)(=O)CC2N1c1ccc(Cl)cc1Cl` (stereo not drawn) was tested, and the inhibition was inconclusive: 30.7%.
With `COc1ccc(CN(Cc2ccccn2)C(=O)CN2C(=O)C(C)Oc3ccccc32)cc1` (stereo not drawn) the inhibition was inactive: -2.2%.
In the case of `COc1cccc(C(=O)NCCS(=O)(=O)NCCCc2ccccc2)c1`, the inhibition is reported as inconclusive: -1.2%.
For `NS(=O)(=O)c1ccc(CCNC(=O)C(=O)c2cn(CC(=O)N3CCOCC3)c3ccccc23)cc1`, the inhibition was inactive: 0.1%.
For `COc1ccccc1OCc1nn[nH]n1`, the inhibition was inconclusive: 11.4%.
`N=c1sccn1CC(=O)N1CCc2ccccc21` was tested, and the inhibition was inconclusive: 7.2%.
`COC(=O)C1(C)NC(c2ccccc2OC)C2C(=O)N(c3ccccc3)C(=O)C21` (stereo not drawn) was tested, and the inhibition was inconclusive: 13.7%.
With `Cc1cc(=O)[nH]c(N/N=C/c2ccccc2Cl)n1` the inhibition was inconclusive: 14.8%.
With `CCCCOP(=O)(c1ccc(N(C)C)cc1)C(O)c1ccc(OC)c(OC)c1` (stereo not drawn) the inhibition was inconclusive: 171%.
With `N/C(=N\OC(=O)COc1ccccc1)c1ccncc1` the inhibition was inconclusive: -93.1%.
For `Cc1cc(C)c2c(CN(C)Cc3ccccc3)cc(=O)oc2c1`, the inhibition was inactive: -0.5%.
For `CCOc1ccc(-c2cnc3ccccc3n2)cc1`, the inhibition was inconclusive: 51.9%.
With `Cc1ccc(C(=O)N(C)CC(=O)Nc2cccc(C)c2C)o1` the inhibition was inconclusive: -17.6%.
With `COC(=O)c1cccc(NC(=O)Nc2ccc(Cl)cc2Cl)c1` the inhibition was inconclusive: 5.7%.
For `Nc1nc(Nc2cccc(F)c2)nc(NCCO)c1[N+](=O)[O-]`, the inhibition was inconclusive: 22.5%.
`Cc1ccccc1NC(=O)OCc1ccccc1` was tested, and the inhibition was inconclusive: 0.1%.
`CCOC(=O)N1CCN(C(=O)Cn2ccc3ccccc3c2=O)CC1` was tested, and the inhibition was inconclusive: -25.9%.
With `Cc1ccc(C23OC(=O)C(C)(C)C2OC(=O)C3(C)C)cc1` (stereo not drawn) the inhibition was inconclusive: 4%.
For `O=C(NN=Cc1ccc(F)cc1)c1ccccc1NS(=O)(=O)c1cccs1`, the inhibition was inactive: -7.6%.
In the case of `Cc1cc(C)n2nc(C)c(Br)c2n1`, the inhibition is reported as inactive: -5.5%.
With `C=C(C)COc1ccc2oc(C)c(C(=O)OCCOC)c2c1` the inhibition was inactive: -4.2%.
With `COC(=O)c1scc(C#N)c1N/N=C(\C#N)S(=O)(=O)c1ccc(Cl)cc1` the inhibition was inconclusive: 46.3%.
`COc1ccc(COC(=O)C2=C(C)NC(=O)NC2c2cc(OC)ccc2OC)cc1` (stereo not drawn) was tested, and the inhibition was inconclusive: -16.9%.
`Cc1ccsc1CNCC(O)c1ccccc1` (stereo not drawn) was tested, and the inhibition was inconclusive: -31.8%.
For `COCCN1C2=C(C(=O)CC(C)(C)C2)C(c2ccc(O)c(OC)c2)C2=C1CC(C)(C)CC2=O`, the inhibition was inconclusive: 6.9%.
For `Cc1ccc(C(=O)NNC(=O)c2ccc3ccccc3c2O)cc1`, the inhibition was inconclusive: -3.1%.
With `COc1ccc(OC)c(N(/C(N)=N/c2nc(C)cc(C)n2)S(=O)(=O)c2ccc(NC(C)=O)cc2)c1` the inhibition was inactive: -5.5%.
`CC1CCCCC12NC(=S)N(c1ccccc1)N2` (stereo not drawn) was tested, and the inhibition was inconclusive: -27%.
`CC(C)(C)NC(=O)COC(=O)c1cncc(Br)c1` was tested, and the inhibition was inactive: -6.4%.
With `CC1(C(=O)O)CCC(C(=O)Nc2ccc(Cl)c(Cl)c2)C1(C)C` (stereo not drawn) the inhibition was inconclusive: -0.9%.
With `COc1ccccc1NC(=O)CC1C(=O)NCCN1C(=O)Nc1ccccc1` (stereo not drawn) the inhibition was inactive: 4.7%.
`C=C(C)CSc1nnc([C@@H](N)Cc2ccccc2)o1` was tested, and the inhibition was inconclusive: 198%.
In the case of `Cc1ccc(C(=O)OC(C)CN2CCN(C)CC2)cc1` (stereo not drawn), the inhibition is reported as inconclusive: -42.7%.
In the case of `CCOC(=O)C1(CCCc2ccccc2)CCN(C(=O)[C@@H]2C[C@@H](C)NC(=S)N2)CC1`, the inhibition is reported as inactive: -26.4%.
With `COc1ccc(OC)c(C2NC(=O)NC(C)=C2C(=O)OC2CCCCC2)c1` (stereo not drawn) the inhibition was inconclusive: -11.5%.
`COc1cccc(C(=O)OC2CCCN(C)C2)c1` (stereo not drawn) was tested, and the inhibition was inconclusive: -21.8%.
With `COc1ccccc1C(=O)N/N=C(\C)CC(=O)Nc1ccccc1NC(C)=O` the inhibition was inconclusive: 18.2%.
In the case of `COc1ccc(NC(=O)C2Cc3c(-c4cccc(C(N)=O)c4)ccnc3O2)cn1` (stereo not drawn), the inhibition is reported as inactive: 3.9%.
For `CCOCCCNC(=S)N1CCN(c2nc(-c3ccccc3)cs2)CC1`, the inhibition was inconclusive: 14.2%.
With `Cc1cc(C(C)(C)C)cc(C)c1C(=O)O` the inhibition was inconclusive: -25%.
`O=C(NCCS(=O)(=O)N1CCN(c2ccccc2F)CC1)c1cccs1` was tested, and the inhibition was inactive: 3.7%.
For `O=C(NC1CCN(C(=S)Nc2ccccc2)CC1)C1CCCCC1`, the inhibition was inactive: 23.8%.
